From article PMC9863049 come the findings set out here.

The target of the test is JUL1 fused to the N-terminal fragment of Venus (JUL1-nVenus) (Arabidopsis thaliana). The test is described as follows: split reporter; BiFC with nVenus and cVenus fusions co-expressed in Nicotiana benthamiana leaf cells by Agrobacterium infiltration; 50 uM MG132 applied after 24 h, fluorescence observed after a further 24 h.

These are yes or no findings as the source states them, for the method shown. In cells and extracts the contact can be indirect. Binding can be weak; no strength is given. Where a sequence is shown, tags or fusion partners need not be part of it.

B1: bZIP53 fused to the C-terminal fragment of Venus (bZIP53-cVenus) (protein, UniProt Q9LZP8 1-146)
chain: MGSLQMQTSPESDNDPRYATVTDERKRKRMISNRESARRSRMRKQKQLGDLINEVTLLKNDNAKITEQVDEASKKYIEMESKNNVLRAQASELTDRLRSLNSVLEMVEEISGQALDIPEIPESMQNPWQMPCPMQPIRASADMFDC
In the case of B1, the binding entry is on record as “binds”.
